{"source": "PubChem BioAssay AID493014", "about": "(National Center for Advancing Translational Sciences (NCATS), 2011)", "note": "Among all 340,000 compounds or so, about 170 (0.05%) were called active. The shares of active, inactive and inconclusive entries below differ from those in the screen. Calls come from the whole dose curve; as a rule, active = well fitted inhibition curve with a large enough effect in the signal ratio, with a control signal flat (not every such curve was filed as active); inconclusive = small, poorly fitted or top-dose-only effect, or effect the other way, or a change in a side signal; inactive = flat fitted curve, though single readings scatter; the % refers to the signal ratio. Potencies beside an inconclusive call are fits to weak or partial responses and may not hold up. Potency is the fitted concentration of half-maximal effect."}
{"assay": "qHTS Assay to Find Inhibitors of Chronic Active B-Cell Receptor Signaling;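 for activity change, negative = inhibition: plate controls were basal doxycycline-induced cells for no effect and cells given 10 µM MG132 for full effect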", "details": "ABC-DLBCL IkBa-CBG/CBR reporter, luminescence ratio (green luciferase fused to IkBa over red control in TMD8 lymphoma cells), 4 h; activity change, negative = inhibition: at 46.1 µM (top of the series)", "procedure,_shortened": "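TMD8 ABC-DLBCL cells carrying doxycycline-inducible green luciferase fused to IkappaBalpha plus unfused red luciferase were exposed to compounds (up to 46 uM) for 4 hrs at 37C. Activity came from the overlap-corrected green/red luminescence ratio.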"}
{"compound": "CN(C)c1ccc(N=Nc2cccc3ccoc23)cc1", "Potency": "inconclusive: 35.5 µM [rising, partial curve]"}
{"compound": "COc1ccccc1CNC(=O)[C@H](NC(=O)C1CCN(C(=O)[C@@H](N)CCSC)CC1)C(C)C", "activity change, negative = inhibition": "inconclusive: 17.2%"}
{"compound": "Cc1ccc(O)c(-c2cc(C(F)(F)C(F)F)nc(-c3ccccc3)n2)c1", "Potency": "inconclusive: 15.8 µM [rising, partial curve, poor fit]"}
{"compound": "COc1ccc(NC(=O)CN2CCC(NC(=O)C3CCCCC3)CC2)c([N+](=O)[O-])c1", "activity change, negative = inhibition": "inconclusive: -2.27%"}
{"compound": "O=C(Nc1ccc2oc(-c3cccnc3)nc2c1)c1cccnc1", "Potency": "inconclusive: 3.98 µM [falling, single point]"}
{"compound": "CCOC(=O)C1=C(COC(=O)/C=C/c2ccc(C)o2)NC(=O)NC1C", "note": "(stereo not drawn)", "activity change, negative = inhibition": "inconclusive: -1.3%"}
{"compound": "O=C(NC(=S)Nc1ccccc1N1CCN(C(=O)c2ccccc2)CC1)c1cccs1", "activity change, negative = inhibition": "inactive"}
{"compound": "COc1cccc(-c2cc(C(F)(F)F)nc(NCc3ccco3)n2)c1", "activity change, negative = inhibition": "inconclusive: 19.2%"}
{"compound": "CC1CN(S(=O)(=O)c2ccc(C(=O)Nc3sccc3C(N)=O)cc2)CC(C)O1", "note": "(stereo not drawn)", "activity change, negative = inhibition": "inconclusive: 1.96%"}
{"compound": "O=C(CNS(=O)(=O)c1ccc2c(c1)OCCCO2)N1CCN(c2ccc(F)cc2)CC1", "activity change, negative = inhibition": "inactive"}
{"compound": "COc1cc(OC)cc(-c2nc(N)n[nH]2)c1", "activity change, negative = inhibition": "inconclusive: -18.3%"}
{"compound": "N#CCOc1nc(N2CCOCC2)nc(N2CCOCC2)n1", "Potency": "inconclusive: 14.6 µM [falling, partial curve, poor fit]"}
{"compound": "NC(=O)CSC1=Nc2ccccc2C2=NC(c3ccccc3)C(=O)N12", "note": "(stereo not drawn)", "activity change, negative = inhibition": "inactive"}
{"compound": "Fc1ccc(-n2nnc(-c3ccccc3Cl)n2)cc1", "activity change, negative = inhibition": "inconclusive: 7%"}
{"compound": "CC(=O)Nc1cccc(NC(=O)c2oc3ccccc3c2C)c1", "Potency": "inconclusive: 23.1 µM [falling, partial curve]"}
{"compound": "O=C(CSc1nc2ccccc2c2nc3ccccc3n12)NCc1ccco1", "activity change, negative = inhibition": "inconclusive: 9.43%"}
{"compound": "COc1ccc2cc(CN(Cc3cccnc3)Cc3nnnn3Cc3ccccc3)c(=O)[nH]c2c1", "activity change, negative = inhibition": "inconclusive: -8.54%"}
{"compound": "Cc1nn2cc(-c3ccccc3)nc2s1", "Potency": "inconclusive: 25.1 µM [falling, single point]"}
{"compound": "Cc1cc(N/N=C/c2ccc(O)cc2O)c2ccccc2n1", "activity change, negative = inhibition": "inactive"}
{"compound": "O=C(CCOc1ccccc1)Nc1ccccc1F", "Potency": "inconclusive: 31.6 µM [falling, partial curve]"}
{"compound": "c1nc(NCc2ccc3c(c2)OCO3)c2cc(-c3ccc4c(c3)OCCO4)ccc2n1", "Potency": "inconclusive: 20.6 µM [falling, single point]", "activity change, negative = inhibition": "inconclusive: -12.5%"}
{"compound": "Cc1cc(C)c(CN2CCN(C(=O)Cn3cnc4c(OCc5ccccc5)ncnc43)CC2)c(C)c1", "activity change, negative = inhibition": "inactive"}
{"compound": "CC1(C)Cc2c(sc(NC(=O)c3ccco3)c2C(=O)O)CO1", "Potency": "inconclusive: 6.51 µM [falling, single point]"}
{"compound": "CC(C)OCCCNC(=O)c1ccc(NS(C)(=O)=O)cc1", "activity change, negative = inhibition": "inconclusive: -5.33%"}
{"compound": "C/C(CC(=O)NC12CC3CC(CC(C3)C1)C2)=N\\NC(=O)Cc1cccs1", "activity change, negative = inhibition": "inconclusive: 5.84%"}
{"compound": "COc1cc(-c2noc(CCCC(=O)NC3CCCCC3)n2)cc(OC)c1OC", "Potency": "inconclusive: 6.51 µM [falling, single point]"}
{"compound": "Cc1ccc(CS(=O)(=O)CCC(=O)NCCC2=CCCCC2)cc1", "activity change, negative = inhibition": "inconclusive: -1.6%"}
{"compound": "COc1cc(C(=O)c2c(C)c(CCC#N)n3ccccc23)cc(OC)c1OC", "activity change, negative = inhibition": "inconclusive: -22.2%"}
{"compound": "O=C(c1ccco1)N1CCN(c2ccc(Cl)cc2)CC1", "Potency": "inconclusive: 6.51 µM [rising, full curve, poor fit]"}
{"compound": "Cc1cc(NC(=O)Cc2ccsc2)ccc1Br", "activity change, negative = inhibition": "inconclusive: 1.07%"}
{"compound": "Cc1cc(C)nc(N2CCC(C(=O)NCCc3ccccc3)CC2)n1", "activity change, negative = inhibition": "inactive"}
{"compound": "Cc1cccc(C)c1NC(=S)NCCc1ccccn1", "activity change, negative = inhibition": "inconclusive: 4.21%"}
{"compound": "c1ccc(CCC2Cc3ccccc3N2)cc1", "note": "(stereo not drawn)", "activity change, negative = inhibition": "inconclusive: 9.13%"}
{"compound": "COc1ccc(C(=O)Nc2nc(-c3ccc(S(=O)(=O)N4CCOCC4)cc3)cs2)cc1", "Potency": "inconclusive: 32.6 µM [falling, single point]"}
{"compound": "CC(=O)c1ccc(NC(=O)c2ccccc2Sc2ncnc3sc(C)c(C)c23)cc1", "activity change, negative = inhibition": "inconclusive: -9.33%"}
{"compound": "O=C(/C=C/c1cccc(Br)c1)NCc1ccncc1", "activity change, negative = inhibition": "inactive"}
{"compound": "COC(=O)CNC(=O)COc1ccccc1", "activity change, negative = inhibition": "inconclusive: 2.04%"}
{"compound": "CCOC(=O)c1ccc(NC(=O)CSC2=NC(=O)C(CC)C(=O)N2)cc1", "note": "(stereo not drawn)", "activity change, negative = inhibition": "inconclusive: -20.7%"}
{"compound": "O=C(c1ccc2nc3ccccc3c(=O)n2c1)N1CCN(Cc2ccc3c(c2)OCO3)CC1", "activity change, negative = inhibition": "inactive"}
{"compound": "c1ccc2c(c1)CC1(CCCC1)n1nnnc1-2", "activity change, negative = inhibition": "inconclusive: 4.3%"}
{"compound": "NS(=O)(=O)c1cccc(NC(=O)CSc2nc3ccccc3c(=O)n2Cc2ccco2)c1", "activity change, negative = inhibition": "inconclusive: -19.7%"}
{"compound": "Cc1cc(C)cc(NC(=O)CCC(=O)N2CCSc3ccccc32)c1", "activity change, negative = inhibition": "inconclusive: -4.63%"}
{"compound": "O=C(CN1CCN(Cc2ccccc2Cl)C1=O)NC1CCCCCC1", "activity change, negative = inhibition": "inconclusive: 3.48%"}
{"compound": "Cc1nn(-c2ccccc2)c(C)c1C(=O)OCC(=O)NC(=O)NC1CCCCC1", "Potency": "inconclusive: 12.6 µM [falling, partial curve]"}
{"compound": "CCCCN(CC)C(=O)c1cc2c(=O)n3cccc(C)c3nc2s1", "activity change, negative = inhibition": "inactive"}
{"compound": "N=c1c2c(n(Cc3cccc(Cl)c3)c3c1CCC3)CCCC2", "activity change, negative = inhibition": "inconclusive: -26%"}
{"compound": "O=C(NC(=S)Nc1ccccc1Br)C1CCC1", "Potency": "inconclusive: 3.55 µM [falling, partial curve]"}
{"compound": "COc1cc(Br)cc(CNc2ccc(F)c([N+](=O)[O-])c2)c1O", "Potency": "inconclusive: 17.8 µM [falling, single point]"}
{"compound": "Cn1c(=O)n(C)c2cc(NC(=O)CCc3ccccc3)c(Br)cc21", "activity change, negative = inhibition": "inconclusive: 4.64%"}
{"compound": "CCOC(=O)c1c(N)sn(-c2ccccc2)c1=S", "activity change, negative = inhibition": "inconclusive: 2.4%"}
{"compound": "CCCC(C)NC(=O)CN(Cc1ccco1)S(=O)(=O)c1ccccc1", "note": "(stereo not drawn)", "activity change, negative = inhibition": "inconclusive: 5.5%"}
{"compound": "COc1ccc(C(=O)NC(c2ccc(Cl)cc2)c2cc(Cl)c3cccnc3c2O)cc1", "note": "(stereo not drawn)", "activity change, negative = inhibition": "inconclusive: 1.78%"}
